# No constants are given. Whether binding was seen depends on the method and setting. Binding seen in cells or lysates may run through a third protein. Some binding calls cover weakened binding; strength is not graded here. Where a sequence is shown, tags or fusion partners need not be part of it.
# T1: DAF-8 (C. elegans (endogenous in worms)) (UniProt Q21733)
# T1 sequence: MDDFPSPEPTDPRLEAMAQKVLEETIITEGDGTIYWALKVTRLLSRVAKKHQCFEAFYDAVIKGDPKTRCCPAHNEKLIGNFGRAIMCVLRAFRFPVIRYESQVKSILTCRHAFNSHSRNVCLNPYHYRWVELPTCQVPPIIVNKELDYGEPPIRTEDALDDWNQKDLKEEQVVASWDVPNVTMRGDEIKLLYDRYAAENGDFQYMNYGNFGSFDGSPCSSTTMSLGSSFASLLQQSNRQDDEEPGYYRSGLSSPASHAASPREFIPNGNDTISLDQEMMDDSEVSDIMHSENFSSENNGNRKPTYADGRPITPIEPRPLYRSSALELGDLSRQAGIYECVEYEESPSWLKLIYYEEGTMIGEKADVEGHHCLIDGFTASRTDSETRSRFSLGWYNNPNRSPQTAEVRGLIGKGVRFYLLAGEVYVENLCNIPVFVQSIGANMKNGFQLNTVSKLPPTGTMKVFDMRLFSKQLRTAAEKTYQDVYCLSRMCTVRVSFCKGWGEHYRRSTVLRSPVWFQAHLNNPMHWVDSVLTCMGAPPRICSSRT
# T2: GST::NHR-69 (C. elegans) (UniProt P91829)
# T2 sequence: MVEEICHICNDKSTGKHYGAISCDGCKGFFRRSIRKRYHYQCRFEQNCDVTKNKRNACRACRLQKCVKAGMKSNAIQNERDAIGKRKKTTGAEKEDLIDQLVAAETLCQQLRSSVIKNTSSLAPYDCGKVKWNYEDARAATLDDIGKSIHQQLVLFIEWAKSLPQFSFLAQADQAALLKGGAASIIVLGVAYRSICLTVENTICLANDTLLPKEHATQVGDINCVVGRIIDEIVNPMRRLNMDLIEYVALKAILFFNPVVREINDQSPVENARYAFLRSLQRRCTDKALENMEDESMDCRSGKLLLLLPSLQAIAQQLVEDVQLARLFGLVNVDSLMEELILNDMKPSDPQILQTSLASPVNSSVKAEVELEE
# B1: NHR-69::GFP (protein, UniProt P91829 1-373)
# chain: T2 sequence
# B2: DAF-8 (in vitro transcribed/translated) (protein, UniProt Q21733 1-546)
# chain: T1 sequence
# B3: DAF-14 (in vitro transcribed/translated) (protein, UniProt F5GUE5 1-331)
# chain: MSNEQEDFGSLFNNQGELGIMDDFAEFGFQTTTTPTNWAAAGNYMYPDQVHLPASINNPNMPINDWLEDAPMPDCYNVPSTSTDENNDPFPFSNISSQSSLKPKTPEKAVVEVRPTGNEMLDPEPKYPKEEKPWCTIFYYELTVRLGKAFEAKVPTITIDGATGASDECRMSLTSQPSSRNSKSSQIRNTVGAGIQLAYENGELWLTVLTDQIVFVQCPFLNQTLNKPLKYVFRLQNKGDQKRMKIFDKEQFEQEKTLALGPLTEKEVADERMRIFSNIRVSFCKGFGETYSRLKVVNLPCWIEIILHEPADEYDTVFRINNERPEIGSRS
# B4: DAF-3 (in vitro transcribed/translated) (protein, UniProt Q95QI7 1-892)
# chain: MGDHHNLTGLPGTSIPPQFNYSQPGTSTGGPLYGGKPSHGLEDIPDVEEYERNLLGAGAGFNLLNVGNMANEFKPIITLDTKPPRDANKSLAFNGGLKLITPKTEVPDEHTPMMSPVNTTTKILQRSGIKMEIPPYLDPDSQDDDPEDGVNYPDPDLFDTKNTNMTEYDLDVLKLGKPAVDEARKKIEVPDASAPPNKIVEYLMYYRTLKESELIQLNAYRTKRNRLSLNLVKNNIDREFDQKACESLVKKLKDKKNDLQNLIDVVLSKGTKYTGCITIPRTLDGRLQVHGRKGFPHVVYGKLWRFNEMTKNETRHVDHCKHAFEMKSDMVCVNPYHYEIVIGTMIVGQRDHDNRDMPPPHQRYHTPGRQDPVDDMSRFIPPASIRPPPMNMHTRPQPMPQQLPSVGATFAHPLPHQAPHNPGVSHPYSIAPQTHYPLNMNPIPQMPQMPQMPPPLHQGYGMNGPSCSSENNNPFHQNHHYNDISHPNHYSYDCGPNLYGFPTPYPDFHHPFNQQPHQPPQLSQNHTSQQGSHQPGHQGQVPNDPPISRPVLQPSTVTLDVFRRYCRQTFGNRFFEGESEQSGAIIRSSNKFIEEFDSPICGVTVVRPRMTDGEVLENIMPEDAPYHDICKFILRLTSESVTFSGEGPEVSDLNEKWGTIVYYEKNLQIGEKKCSRGNFHVDGGFICSENRYSLGLEPNPIREPVAFKVRKAIVDGIRFSYKKDGSVWLQNRMKYPVFVTSGYLDEQSGGLKKDKVHKVYGCASIKTFGFNVSKQIIRDALLSKQMATMYLQGKLTPMNYIYEKKTQEELRREATRTTDSLAKYCCVRVSFCKGFGEAYPERPSIHDCPVWIELKINIAYDFMDSICQYITNCFEPLGMEDFAKLGINVSDD
# Assays:
# [1] = biological target: T1, DAF-8 (C. elegans (endogenous in worms)); assay: co-IP; in vivo co-immunoprecipitation with anti-DAF-8 antibody from nhr-69p::nhr-69::gfp worms (wild-type worms as control), immunoblot with anti-GFP antibody
# GST::NHR-69 (C. elegans) = biological target: T2, GST::NHR-69 (C. elegans); assay: pull-down; in vitro GST pull-down: GST fusion of NHR-69 or GST alone with in vitro transcribed/translated Smad proteins; only the target purified
Binder,binding [1],binding (GST::NHR-69 (C. elegans))
B1,binds,–
B2,–,binds
B3,–,no binding
B4,–,no binding
